# Laboratory results: publication PMC4728133
# B1: SIN3A (protein, UniProt Q60520 1-1274)
# chain: MKRRLDDQESPVYAAQQRRIPGSTEAFSHQHRVLAPAPPVYEAVSETMQSATGIQYSVAPNYQVSAVPQSSGSHGPAIAAVHSSHHHPTAVQPHGGQVVQSHAHPAPPVAPVQGQQQFQRLKVEDALSYLDQVKLQFGSQPQVYNDFLDIMKEFKSQSIDTPGVISRVSQLFKGHPDLIMGFNTFLPPGYKIEVQTNDMVNVTTPGQVHQIPTHGIQPQPQPPPQHPSQPSSQSAPTPAQPAPQPTAAKVSKPSQLQAHTPASQQTPPLPPYASPRSPPVQPHTPVTISLGTAPSLQNNQPVEFNHAINYVNKIKNRFQGQPDIYKAFLEILHTYQKEQRNAKEAGGNYTPALTEQEVYAQVARLFKNQEDLLSEFGQFLPDANSSVLLSKTTAEKVDSVRNDHGGTVKKPQLNNKPQRPSQNGCQIRRHSGTGATPPVKKKPKLMSLKESSMADASKHGVGTESLFFDKVRKALRSAEAYENFLRCLVIFNQEVISRAELVQLVSPFLGKFPELFNWFKNFLGYKESVHLESFPKERATEGIAMEIDYASCKRLGSSYRALPKSYQQPKCTGRTPLCKEVLNDTWVSFPSWSEDSTFVSSKKTQYEEHIYRCEDERFELDVVLETNLATIRVLEAIQKKLSRLSAEEQAKFRLDNTLGGTSEVIHRKALQRIYADKAADIIDGLRKNPSIAVPIVLKRLKMKEEEWREAQRGFNKVWREQNEKYYLKSLDHQGINFKQNDTKVLRSKSLLNEIESIYDERQEQATEENAGVPVGPHLSLAYEDKQILEDAAALIIHHVKRQTGIQKEDKYKIKQIMHHFIPDLLFAQRGDLSDVEEEEEEEMDVDEATGAPKKHNGVGGSPPKSKLLFSNTAAQKLRGMDEVYNLFYVNNNWYIFMRLHQILCLRLLRICSQAERQIEEENREREWEREVLGIKRDKSDSPAIQLRLKEPMDVDVEDYYPAFLDMVRSLLDGNIDSSQYEDSLREMFTIHAYIAFTMDKLIQSIVRQLQHIVSDEVCVQVTDLYLAENNNGATGGQLNSQTSRSLLESAYQRKAEQLMSDENCFKLMFIQSQGQVQLTVELLDTEEENSDDPVEAERWSDYVERYMSSDTTSPELREHLAQKPVFLPRNLRRIRKCQRGREQQEKEGKEGNSKKTMENVESLDKLECRFKLNSYKMVYVIKSEDYMYRRTALLRAHQSHERVSKRLHQRFQAWVDKWTKEHVPREMAAETSKWLMGEGLEGLVPCTTTCDTETLHFVSINKYRVKYGTVFKAP
# Substrate: C terminal REST peptide (REST^C) (mouse (endogenous in mouse ESC))
# Experiment: co-IP; nuclear extracts of ESC in IP buffer (150 mM NaCl, 50 mM Tris-HCl pH 7.5, 0.5% Triton X-100, 0.5 mM EDTA, 10% glycerol), DNA and RNA digested with Benzonase, immunoprecipitated overnight at 4°C with rabbit anti-mouse REST antibody, protein G Dynabeads; Western blot
binder,measurement,value
B1,binding,no binding

# These are yes or no findings as the source states them, for the method shown. Binding seen in cells or lysates may run through a third protein.
